# Test results as given in the supplement of paper PMC7666118.
# By UniProt entry, the sequences of proteins in these tests, tags left out. Where a name states a change or a piece, a line headed by the entry shows the natural chain unless it says otherwise.
# UniProt P63279, whole entry: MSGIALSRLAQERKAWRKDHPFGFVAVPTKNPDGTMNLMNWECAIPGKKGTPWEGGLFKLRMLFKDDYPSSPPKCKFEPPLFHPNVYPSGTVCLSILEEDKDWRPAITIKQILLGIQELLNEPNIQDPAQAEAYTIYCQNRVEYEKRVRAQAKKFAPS
# UniProt Q8N0Z6: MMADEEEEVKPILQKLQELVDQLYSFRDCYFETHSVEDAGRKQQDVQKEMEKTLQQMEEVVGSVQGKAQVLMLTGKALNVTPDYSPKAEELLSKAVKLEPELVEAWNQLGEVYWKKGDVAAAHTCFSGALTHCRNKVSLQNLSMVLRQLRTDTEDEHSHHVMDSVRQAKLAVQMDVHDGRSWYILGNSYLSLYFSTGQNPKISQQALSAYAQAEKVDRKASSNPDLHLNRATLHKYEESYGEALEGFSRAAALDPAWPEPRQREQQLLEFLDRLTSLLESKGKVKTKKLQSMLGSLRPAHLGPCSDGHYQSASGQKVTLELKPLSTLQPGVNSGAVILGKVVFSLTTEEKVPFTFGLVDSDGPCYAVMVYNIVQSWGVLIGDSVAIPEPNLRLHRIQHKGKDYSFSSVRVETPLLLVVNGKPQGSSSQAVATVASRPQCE
# UniProt P83876: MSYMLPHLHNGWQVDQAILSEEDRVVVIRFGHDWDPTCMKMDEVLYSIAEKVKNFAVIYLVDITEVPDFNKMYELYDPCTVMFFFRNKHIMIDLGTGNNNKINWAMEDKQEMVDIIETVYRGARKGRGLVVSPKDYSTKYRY
# UniProt O14933: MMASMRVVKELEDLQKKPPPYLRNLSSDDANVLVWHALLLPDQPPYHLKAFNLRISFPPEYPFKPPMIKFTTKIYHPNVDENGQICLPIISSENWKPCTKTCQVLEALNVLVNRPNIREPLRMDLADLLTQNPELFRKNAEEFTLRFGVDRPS
# UniProt Q99757: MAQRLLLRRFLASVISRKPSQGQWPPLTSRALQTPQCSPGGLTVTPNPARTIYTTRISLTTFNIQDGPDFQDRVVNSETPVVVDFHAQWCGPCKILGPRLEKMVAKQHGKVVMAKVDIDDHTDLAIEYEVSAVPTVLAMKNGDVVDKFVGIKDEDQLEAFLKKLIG
# UniProt Q9UDW1: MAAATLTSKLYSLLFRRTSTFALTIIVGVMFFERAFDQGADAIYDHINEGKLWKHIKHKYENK
# UniProt P61960, whole entry: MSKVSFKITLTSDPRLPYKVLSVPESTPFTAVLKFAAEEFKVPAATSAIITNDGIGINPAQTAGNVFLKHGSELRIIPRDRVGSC
# UniProt Q9BVJ6: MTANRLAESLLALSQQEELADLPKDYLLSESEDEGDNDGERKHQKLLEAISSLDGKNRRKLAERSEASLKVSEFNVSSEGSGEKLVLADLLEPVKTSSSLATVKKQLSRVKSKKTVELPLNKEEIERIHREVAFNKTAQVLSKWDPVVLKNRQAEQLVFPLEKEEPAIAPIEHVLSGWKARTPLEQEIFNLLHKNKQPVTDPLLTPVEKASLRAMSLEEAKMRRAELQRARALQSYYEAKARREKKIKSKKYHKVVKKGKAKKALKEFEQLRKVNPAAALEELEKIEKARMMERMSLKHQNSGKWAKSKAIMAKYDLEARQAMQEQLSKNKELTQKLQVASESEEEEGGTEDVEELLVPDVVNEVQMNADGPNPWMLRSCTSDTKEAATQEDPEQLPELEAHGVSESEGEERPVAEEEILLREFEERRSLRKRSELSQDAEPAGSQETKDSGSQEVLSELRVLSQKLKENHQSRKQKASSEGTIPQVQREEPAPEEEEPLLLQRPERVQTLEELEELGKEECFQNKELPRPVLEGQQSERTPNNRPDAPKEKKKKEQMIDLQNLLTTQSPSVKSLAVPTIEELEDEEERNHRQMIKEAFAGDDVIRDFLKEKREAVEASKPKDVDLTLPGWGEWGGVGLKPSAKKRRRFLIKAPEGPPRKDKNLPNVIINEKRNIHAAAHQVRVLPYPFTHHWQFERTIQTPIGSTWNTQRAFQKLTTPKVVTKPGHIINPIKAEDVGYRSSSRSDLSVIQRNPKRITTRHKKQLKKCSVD
# UniProt Q6ZS81: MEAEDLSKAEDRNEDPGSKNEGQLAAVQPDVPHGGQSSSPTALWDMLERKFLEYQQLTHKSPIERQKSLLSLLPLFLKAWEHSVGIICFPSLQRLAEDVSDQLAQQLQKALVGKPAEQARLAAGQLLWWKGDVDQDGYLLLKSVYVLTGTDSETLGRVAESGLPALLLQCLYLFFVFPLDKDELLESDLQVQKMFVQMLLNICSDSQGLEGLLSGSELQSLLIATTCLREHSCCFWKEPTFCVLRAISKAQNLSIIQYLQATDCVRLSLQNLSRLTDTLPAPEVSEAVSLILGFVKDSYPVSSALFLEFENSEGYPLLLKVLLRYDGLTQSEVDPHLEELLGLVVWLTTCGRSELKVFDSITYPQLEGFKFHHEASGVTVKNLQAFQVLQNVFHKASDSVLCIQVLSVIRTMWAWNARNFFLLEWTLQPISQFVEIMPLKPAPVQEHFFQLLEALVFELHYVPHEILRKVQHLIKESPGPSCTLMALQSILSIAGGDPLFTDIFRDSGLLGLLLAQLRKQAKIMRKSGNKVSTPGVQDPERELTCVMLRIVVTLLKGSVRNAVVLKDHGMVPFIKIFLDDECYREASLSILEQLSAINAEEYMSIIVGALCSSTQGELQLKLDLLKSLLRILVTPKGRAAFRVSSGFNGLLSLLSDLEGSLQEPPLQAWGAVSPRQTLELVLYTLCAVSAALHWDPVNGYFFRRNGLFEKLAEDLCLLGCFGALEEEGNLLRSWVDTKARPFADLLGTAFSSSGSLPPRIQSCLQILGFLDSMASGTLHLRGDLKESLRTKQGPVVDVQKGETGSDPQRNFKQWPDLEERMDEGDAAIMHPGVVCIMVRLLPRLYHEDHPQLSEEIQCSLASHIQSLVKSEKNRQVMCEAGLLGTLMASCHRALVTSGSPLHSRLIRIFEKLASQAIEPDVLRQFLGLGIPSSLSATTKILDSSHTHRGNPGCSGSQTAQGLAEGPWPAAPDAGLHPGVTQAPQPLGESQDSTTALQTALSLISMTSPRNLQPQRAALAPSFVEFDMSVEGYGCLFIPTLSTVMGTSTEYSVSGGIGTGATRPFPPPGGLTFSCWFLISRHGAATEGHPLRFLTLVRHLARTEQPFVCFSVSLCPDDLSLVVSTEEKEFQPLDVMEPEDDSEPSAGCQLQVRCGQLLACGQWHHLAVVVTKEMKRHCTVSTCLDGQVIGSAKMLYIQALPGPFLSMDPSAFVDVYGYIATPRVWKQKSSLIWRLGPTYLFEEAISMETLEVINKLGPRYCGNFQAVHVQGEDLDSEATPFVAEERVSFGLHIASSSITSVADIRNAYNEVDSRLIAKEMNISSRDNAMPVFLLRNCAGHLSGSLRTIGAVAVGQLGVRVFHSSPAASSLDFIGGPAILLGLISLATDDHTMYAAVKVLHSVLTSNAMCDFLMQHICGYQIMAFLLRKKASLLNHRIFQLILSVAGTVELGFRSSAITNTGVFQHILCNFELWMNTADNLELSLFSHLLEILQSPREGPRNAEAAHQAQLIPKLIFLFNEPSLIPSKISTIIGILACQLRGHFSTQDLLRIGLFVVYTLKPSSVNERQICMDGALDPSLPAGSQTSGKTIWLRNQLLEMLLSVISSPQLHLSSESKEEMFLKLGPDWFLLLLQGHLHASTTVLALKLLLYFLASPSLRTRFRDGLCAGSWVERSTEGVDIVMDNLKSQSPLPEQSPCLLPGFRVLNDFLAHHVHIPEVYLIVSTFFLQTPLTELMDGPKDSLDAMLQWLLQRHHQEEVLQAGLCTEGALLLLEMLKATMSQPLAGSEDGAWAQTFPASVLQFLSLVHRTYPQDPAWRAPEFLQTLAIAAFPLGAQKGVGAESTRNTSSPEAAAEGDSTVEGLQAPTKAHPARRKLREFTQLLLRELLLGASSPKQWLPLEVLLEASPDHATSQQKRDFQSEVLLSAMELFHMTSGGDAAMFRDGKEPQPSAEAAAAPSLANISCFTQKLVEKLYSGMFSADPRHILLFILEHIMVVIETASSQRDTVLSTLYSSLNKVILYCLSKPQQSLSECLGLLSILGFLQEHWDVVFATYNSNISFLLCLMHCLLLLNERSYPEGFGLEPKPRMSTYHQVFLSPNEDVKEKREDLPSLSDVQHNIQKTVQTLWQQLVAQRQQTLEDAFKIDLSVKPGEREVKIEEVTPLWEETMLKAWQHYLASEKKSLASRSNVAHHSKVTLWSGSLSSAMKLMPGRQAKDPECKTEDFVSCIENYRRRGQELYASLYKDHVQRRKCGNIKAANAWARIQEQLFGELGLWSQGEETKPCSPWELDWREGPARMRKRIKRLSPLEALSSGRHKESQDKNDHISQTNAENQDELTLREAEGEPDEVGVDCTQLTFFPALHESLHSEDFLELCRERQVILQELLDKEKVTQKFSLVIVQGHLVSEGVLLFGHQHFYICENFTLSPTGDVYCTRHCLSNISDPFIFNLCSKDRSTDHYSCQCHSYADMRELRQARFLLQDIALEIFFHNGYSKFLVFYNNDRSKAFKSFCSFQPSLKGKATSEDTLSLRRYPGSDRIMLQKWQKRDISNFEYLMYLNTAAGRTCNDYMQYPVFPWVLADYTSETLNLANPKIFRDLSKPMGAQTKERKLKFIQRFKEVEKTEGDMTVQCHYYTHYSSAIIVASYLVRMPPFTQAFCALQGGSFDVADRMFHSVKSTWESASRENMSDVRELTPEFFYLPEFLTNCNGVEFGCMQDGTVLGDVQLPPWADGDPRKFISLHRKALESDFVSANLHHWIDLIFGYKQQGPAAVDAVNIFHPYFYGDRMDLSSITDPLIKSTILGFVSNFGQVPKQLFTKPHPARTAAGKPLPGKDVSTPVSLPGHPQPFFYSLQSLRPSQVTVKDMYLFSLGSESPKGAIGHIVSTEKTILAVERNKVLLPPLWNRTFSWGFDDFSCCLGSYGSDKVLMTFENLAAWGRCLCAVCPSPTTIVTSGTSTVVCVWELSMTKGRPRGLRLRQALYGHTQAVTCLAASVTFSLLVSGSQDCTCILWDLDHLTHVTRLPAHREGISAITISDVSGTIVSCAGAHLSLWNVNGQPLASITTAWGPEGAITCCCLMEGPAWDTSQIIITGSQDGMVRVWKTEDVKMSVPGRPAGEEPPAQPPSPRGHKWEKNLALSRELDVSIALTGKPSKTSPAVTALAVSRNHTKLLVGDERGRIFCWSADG
# UniProt Q96K76: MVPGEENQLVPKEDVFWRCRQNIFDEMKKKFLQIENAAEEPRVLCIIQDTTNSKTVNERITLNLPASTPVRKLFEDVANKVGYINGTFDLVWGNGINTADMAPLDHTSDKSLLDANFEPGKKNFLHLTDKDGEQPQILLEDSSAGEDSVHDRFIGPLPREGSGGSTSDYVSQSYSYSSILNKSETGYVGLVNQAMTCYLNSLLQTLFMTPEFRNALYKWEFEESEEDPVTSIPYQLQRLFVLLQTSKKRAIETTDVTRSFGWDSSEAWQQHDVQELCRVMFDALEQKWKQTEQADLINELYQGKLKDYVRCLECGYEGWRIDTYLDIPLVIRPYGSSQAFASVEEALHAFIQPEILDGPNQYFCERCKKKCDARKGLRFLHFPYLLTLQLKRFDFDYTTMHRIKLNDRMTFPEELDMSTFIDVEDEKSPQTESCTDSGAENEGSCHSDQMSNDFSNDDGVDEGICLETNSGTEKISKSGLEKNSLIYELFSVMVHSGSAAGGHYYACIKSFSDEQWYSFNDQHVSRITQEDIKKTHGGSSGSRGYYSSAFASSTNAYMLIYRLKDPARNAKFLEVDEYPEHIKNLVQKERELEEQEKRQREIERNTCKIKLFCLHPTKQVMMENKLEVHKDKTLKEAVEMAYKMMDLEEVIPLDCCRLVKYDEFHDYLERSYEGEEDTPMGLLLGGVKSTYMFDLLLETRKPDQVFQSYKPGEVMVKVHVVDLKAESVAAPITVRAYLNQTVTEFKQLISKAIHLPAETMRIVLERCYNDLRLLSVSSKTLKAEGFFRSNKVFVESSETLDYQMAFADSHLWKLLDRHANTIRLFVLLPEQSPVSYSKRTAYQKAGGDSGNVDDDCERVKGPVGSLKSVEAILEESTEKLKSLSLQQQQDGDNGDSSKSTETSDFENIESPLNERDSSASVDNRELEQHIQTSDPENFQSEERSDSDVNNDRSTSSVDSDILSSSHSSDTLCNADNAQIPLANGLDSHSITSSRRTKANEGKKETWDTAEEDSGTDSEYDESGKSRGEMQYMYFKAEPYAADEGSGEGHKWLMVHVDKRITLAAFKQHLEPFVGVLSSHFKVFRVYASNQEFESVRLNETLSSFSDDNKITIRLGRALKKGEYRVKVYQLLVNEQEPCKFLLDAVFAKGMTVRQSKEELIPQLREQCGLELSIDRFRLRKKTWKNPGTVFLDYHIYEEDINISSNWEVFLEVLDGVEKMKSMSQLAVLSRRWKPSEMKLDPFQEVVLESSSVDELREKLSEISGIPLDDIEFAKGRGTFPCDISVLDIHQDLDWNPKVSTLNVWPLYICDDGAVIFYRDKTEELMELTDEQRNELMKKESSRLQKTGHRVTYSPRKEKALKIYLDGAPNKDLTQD
# The other results are listed elsewhere or left out.
# Compound: COc1ccc(Cn2ccc3cc(C)c(C(=O)NO)cc32)cc1
# Assay: dose-dependent thermal stabilisation call (2D-TPP, DLPTP, 10% FDR) (binary (1 = stabilised)); higher = stabilised by the compound
# Conditions: system: HL-60 intact cells; concentration range 0.04-10 µM
# Description: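 2D thermal proteome profiling in intact HL-60 cells treated with BRD-3811 (0, 0.04, 0.29, 2, 10 uM) for 90 min at 37 C, then heated 3 min at one of 12 temperatures (42-63.9 C). Soluble protein was quantified by TMT10 MS. The value is the DLPTP call of the paper: dose-dependent thermal stabilisation over all temperatures at 10% FDR (F-test of a dose-response against a flat model); one experiment, one call per tested protein.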
row,Target,dose-dependent thermal stabilisation call
1,UBE2L3 (UniProt P68036),inactive: 0
2,TUBB (UniProt P07437),active: 1
3,VPS72 (UniProt Q15906),inactive: 0
4,UBE2I (UniProt P63279),inactive: 0
5,TTC5 (UniProt Q8N0Z6),inactive: 0
6,TUBGCP5 (UniProt Q96RT8),inactive: 0
7,WBP2 (UniProt Q969T9),inactive: 0
8,UBE2O (UniProt Q9C0C9),inactive: 0
9,TXNDC10 (UniProt Q96JJ7),inactive: 0
10,UBQLN2 (UniProt Q9UHD9),inactive: 0
11,UBR2 (UniProt Q8IWV8),inactive: 0
12,UBA5 (UniProt Q9GZZ9),inactive: 0
13,UBXN10 (UniProt Q96LJ8),inactive: 0
14,TTYH3 (UniProt Q9C0H2),inactive: 0
15,TXNL4A (UniProt P83876),inactive: 0
16,UBE2L6 (UniProt O14933),inactive: 0
17,TXN2 (UniProt Q99757),inactive: 0
18,UCRC (UniProt Q9UDW1),inactive: 0

# Looked up above:
# UBA5 (UniProt Q9GZZ9) – dose-dependent thermal stabilisation call: inactive: 0
# WBP2 (UniProt Q969T9) – dose-dependent thermal stabilisation call: inactive: 0

# Next part

row,Target,dose-dependent thermal stabilisation call
1,TUSC2 (UniProt O75896),inactive: 0
2,VPS35 (UniProt Q96QK1),inactive: 0
3,UFM1 (UniProt P61960),inactive: 0
4,VPS29 (UniProt Q9UBQ0),inactive: 0
5,TTC26,inactive: 0
6,TTL (UniProt Q8NG68),inactive: 0
7,TXNDC9 (UniProt O14530),inactive: 0
8,UBL5 (UniProt Q9BZL1),inactive: 0
9,TTN (UniProt Q8WZ42),inactive: 0
10,URB2 (UniProt Q14146),inactive: 0
11,UTP14A (UniProt Q9BVJ6),inactive: 0
12,UPF3A (UniProt Q9H1J1),inactive: 0
13,WDFY4 (UniProt Q6ZS81),inactive: 0
14,TXNDC14 (UniProt Q9Y320),inactive: 0
15,USP47 (UniProt Q96K76),inactive: 0
16,UBTF (UniProt P17480),inactive: 0
17,TTC35 (UniProt Q15006),inactive: 0
